Record: PubChem BioAssay AID504764 (Drosophila RNAi Screening Center, 2011)
Screen: 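Genome-wide screen for regulators of Notch-driven gene expression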 (primary screen). System: Drosophila Kc167 cells. Knock-down reagent: long dsRNA against Drosophila genes. Time to read-out: about 5 days (4 days dsRNA, then 24 h after transfection). Challenge: transfection of constitutively active membrane-tethered Notch lacking the extracellular domain, read 24 h later. Detection: 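Firefly luciferase from an E(spl)m3 reporter with active Notch, plus control-promoter and uninduced reporter wells for normalisation; unnormalised counts, duplicate wells a and b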. Direction: induced reporter light, run 1, well a and induced reporter light, run 1, well b: higher = more light from the Notch target reporter with active Notch; control promoter light, run 1, well a and control promoter light, run 1, well b: higher = more light from the viral control promoter (cell number, transfection, viability); uninduced reporter light, run 1, well a: higher = more light from the Notch target reporter without active Notch. Hit rule: 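Hit if the duplicate-averaged log2 ratio of induced to control-promoter light gives a plate-wise z beyond ±2, or induced to uninduced beyond ±1.8; weak-control or discordant-duplicate wells dropped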. Meaning of the calls: active = modifier hit (raised or lowered Notch signal); inactive = not a hit.
In all, the deposit lists about 22,000 reagents; below is a random part of those with a known target gene and a result. In the full data, 403 (1.9%) got an active call. 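Unnormalised raw counts per well; ratio z-scores behind the hit calls and whether each hit raises or lowers signal are not deposited.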 Reagents against one gene are numbered here. No sequences are given here. Not stated in the record: the amount of reagent.

gene | reagent | induced reporter light, run 1, well a | induced reporter light, run 1, well b | control promoter light, run 1, well a | control promoter light, run 1, well b | uninduced reporter light, run 1, well a | outcome
Ugalt (GeneID 31255) | 1 | 1.21e5 | 1.29e5 | 2.10e5 | 2.10e5 | 10565 | inactive
CG8237 (GeneID 35891) | 1 | 1.77e5 | 1.59e5 | 1.71e5 | 1.49e5 | 13930 | inactive
CG7786 (GeneID 36802) | 1 | 1.39e5 | 1.25e5 | 2.03e5 | 1.42e5 | 8880 | inactive
CG13744 (GeneID 35906) | 1 | 1.95e5 | 1.49e5 | 1.78e5 | 1.76e5 | 15405 | inactive
CR31958 (GeneID 33603) | 1 | 2.20e5 | 1.70e5 | 1.85e5 | 1.84e5 | 12800 | inactive
TwdlN (GeneID 43207) | 1 | 1.94e5 | 1.78e5 | 2.41e5 | 1.69e5 | 12885 | inactive
Snoo (GeneID 5740414) | 1 | 1.08e5 | 1.37e5 | 1.33e5 | 1.51e5 | 8578 | inactive
Snoo (GeneID 5740414) | 2 | 1.92e5 | 2.11e5 | 1.56e5 | 2.32e5 | 16100 | inactive
Snoo (GeneID 5740414) | 3 | 1.55e5 | 1.55e5 | 98235 | 1.26e5 | 21745 | inactive
CG9512 (GeneID 32419) | 1 | 1.84e5 | 2.07e5 | 2.99e5 | 3.04e5 | 14545 | inactive
ppk13 (GeneID 3346226) | 1 | 50920 | 61975 | 54685 | 43340 | 2750 | inactive

The list goes on; the last 2 above are carried over.
gene | reagent | induced reporter light, run 1, well a | induced reporter light, run 1, well b | control promoter light, run 1, well a | control promoter light, run 1, well b | uninduced reporter light, run 1, well a | outcome
CG9512 (GeneID 32419) | 1 | 1.84e5 | 2.07e5 | 2.99e5 | 3.04e5 | 14545 | inactive
ppk13 (GeneID 3346226) | 1 | 50920 | 61975 | 54685 | 43340 | 2750 | inactive
Arp53D (GeneID 36879) | 1 | 98530 | 78340 | 74810 | 56140 | 4270 | inactive
Mtl (GeneID 43319) | 1 | 1.82e5 | 1.09e5 | 2.34e5 | 2.00e5 | 13325 | inactive
Mat89Ba (GeneID 41973) | 1 | 1.74e5 | 1.99e5 | 2.57e5 | 2.39e5 | 13515 | inactive
CG17207 (GeneID 2768665) | 1 | 3715 | 5415 | 9615 | 5700 | 442 | inactive
CG12594 (GeneID 41416) | 1 | 79535 | 76995 | 68395 | 61620 | 5600 | inactive
Spn88Ea (GeneID 49804) | 1 | 10320 | 8280 | 8765 | 9015 | 745 | inactive
CG15599 (GeneID 32503) | 1 | 74695 | 56440 | 79955 | 57795 | 8185 | inactive
wake (GeneID 42676) | 1 | 2.01e5 | 1.89e5 | 2.19e5 | 2.20e5 | 17110 | inactive
wake (GeneID 42676) | 2 | 1.76e5 | 1.61e5 | 1.68e5 | 1.60e5 | 11810 | inactive
